The supplement of paper PMC7661543
Differences between knockout arms are mostly noise.

System: SKBR3
Experiment: relative cell number vs DMSO control (72 h) (% of DMSO); higher = less growth inhibition (more cells)
Experimental: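 QMAP-Seq: a pool of 5 breast cancer cell lines (ZR-75-1, SKBR3, HCC-38, MDA-MB-231, BT-20), each carrying 12 doxycycline-inducible Cas9 sgRNA perturbations (11 knockouts plus non-targeting sgNT), was treated with compounds for 72 h at four 10-fold doses (10 nM-10 uM or 1 nM-1 uM range). Barcodes were amplified and sequenced, and cell number was interpolated from 293T spike-in standard curves. The result is expressed as % of the median of DMSO wells. Two biological replicates.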

CCC(C)(C)C(=O)O[C@H]1C[C@@H](C)C=C2C=C[C@H](C)[C@H](CC[C@@H]3C[C@@H](O)CC(=O)O3)[C@H]21 [Simvastatin]
Details | relative cell number
sgRNA knockout: sgATF3, 10 nM | 108
sgRNA knockout: sgATF3, 100 nM | 90.3
sgRNA knockout: sgATF3, 1000 nM | 93.7
sgRNA knockout: sgATF3, 10000 nM | 115
sgRNA knockout: sgATF4, 10 nM | 102
sgRNA knockout: sgATF4, 100 nM | 84.4
sgRNA knockout: sgATF4, 1000 nM | 87.8
sgRNA knockout: sgATF4, 10000 nM | 94.9
sgRNA knockout: sgATF6, 10 nM | 89.9
sgRNA knockout: sgATF6, 100 nM | 88.9
sgRNA knockout: sgATF6, 1000 nM | 84.3
sgRNA knockout: sgATF6, 10000 nM | 100
sgRNA knockout: sgATG7, 10 nM | 94.5
sgRNA knockout: sgATG7, 100 nM | 102
sgRNA knockout: sgATG7, 1000 nM | 87.2
sgRNA knockout: sgATG7, 10000 nM | 95.9
sgRNA knockout: sgERN1, 10 nM | 102
sgRNA knockout: sgERN1, 100 nM | 87.1
sgRNA knockout: sgERN1, 1000 nM | 99.11
sgRNA knockout: sgERN1, 10000 nM | 84
sgRNA knockout: sgHSF1, 10 nM | 99.9
sgRNA knockout: sgHSF1, 100 nM | 100
sgRNA knockout: sgHSF1, 1000 nM | 89.9
sgRNA knockout: sgHSF1, 10000 nM | 102
sgRNA knockout: sgHSF2, 10 nM | 110
sgRNA knockout: sgHSF2, 100 nM | 91.4
sgRNA knockout: sgHSF2, 1000 nM | 86
sgRNA knockout: sgHSF2, 10000 nM | 87.4
sgRNA knockout: sgKEAP1, 10 nM | 96.2
sgRNA knockout: sgKEAP1, 100 nM | 92.3
sgRNA knockout: sgKEAP1, 1000 nM | 82.4
sgRNA knockout: sgKEAP1, 10000 nM | 98.1
sgRNA knockout: sgNFE2L2, 10 nM | 98.9
sgRNA knockout: sgNFE2L2, 100 nM | 94.2
sgRNA knockout: sgNFE2L2, 1000 nM | 89.4
sgRNA knockout: sgNFE2L2, 10000 nM | 104
sgRNA knockout: sgSLC35F2, 10 nM | 88.1
sgRNA knockout: sgSLC35F2, 100 nM | 95.4
sgRNA knockout: sgSLC35F2, 1000 nM | 120
sgRNA knockout: sgSLC35F2, 10000 nM | 96
sgRNA knockout: sgXBP1, 10 nM | 85.5
sgRNA knockout: sgXBP1, 100 nM | 102
sgRNA knockout: sgXBP1, 1000 nM | 106
sgRNA knockout: sgXBP1, 10000 nM | 110

COC(=O)/C=C/C(=O)OC [DimethylFumarate]
Details | relative cell number
sgRNA knockout: sgATF3, 10 nM | 104
sgRNA knockout: sgATF3, 100 nM | 97.3
sgRNA knockout: sgATF3, 1000 nM | 91.4
sgRNA knockout: sgATF3, 10000 nM | 105
sgRNA knockout: sgATF4, 10 nM | 85.5
sgRNA knockout: sgATF4, 100 nM | 82.8
sgRNA knockout: sgATF4, 1000 nM | 74.9
sgRNA knockout: sgATF4, 10000 nM | 91.6
sgRNA knockout: sgATF6, 10 nM | 81.7
sgRNA knockout: sgATF6, 100 nM | 85.7
sgRNA knockout: sgATF6, 1000 nM | 92.8
sgRNA knockout: sgATF6, 10000 nM | 86.6
sgRNA knockout: sgATG7, 10 nM | 112
sgRNA knockout: sgATG7, 100 nM | 84.7
sgRNA knockout: sgATG7, 1000 nM | 87.1
sgRNA knockout: sgATG7, 10000 nM | 93.4
sgRNA knockout: sgERN1, 10 nM | 95.7
sgRNA knockout: sgERN1, 100 nM | 92.5
sgRNA knockout: sgERN1, 1000 nM | 109
sgRNA knockout: sgERN1, 10000 nM | 89.9
sgRNA knockout: sgHSF1, 10 nM | 106
sgRNA knockout: sgHSF1, 100 nM | 83.5
sgRNA knockout: sgHSF1, 1000 nM | 93.6
sgRNA knockout: sgHSF1, 10000 nM | 106
sgRNA knockout: sgHSF2, 10 nM | 81.3
sgRNA knockout: sgHSF2, 100 nM | 78.2
sgRNA knockout: sgHSF2, 1000 nM | 86.4
sgRNA knockout: sgHSF2, 10000 nM | 102
sgRNA knockout: sgKEAP1, 10 nM | 80.1
sgRNA knockout: sgKEAP1, 100 nM | 67.4
sgRNA knockout: sgKEAP1, 1000 nM | 85.4
sgRNA knockout: sgKEAP1, 10000 nM | 107
sgRNA knockout: sgNFE2L2, 10 nM | 73.2
sgRNA knockout: sgNFE2L2, 100 nM | 101
sgRNA knockout: sgNFE2L2, 1000 nM | 71.9
sgRNA knockout: sgNFE2L2, 10000 nM | 100
sgRNA knockout: sgSLC35F2, 10 nM | 92.9
sgRNA knockout: sgSLC35F2, 100 nM | 90.9
sgRNA knockout: sgSLC35F2, 1000 nM | 72.6
sgRNA knockout: sgSLC35F2, 10000 nM | 87
sgRNA knockout: sgXBP1, 10 nM | 97.3
sgRNA knockout: sgXBP1, 100 nM | 81.5
sgRNA knockout: sgXBP1, 1000 nM | 92.6
sgRNA knockout: sgXBP1, 10000 nM | 96.6

C=C(C)[C@@H]1CC[C@]2(C(=O)O)CC[C@]3(C)[C@H](CC[C@@H]4[C@@]5(C)CC[C@H](O)C(C)(C)[C@@H]5CC[C@]43C)[C@@H]12 [BetulinicAcid]
Details | relative cell number
sgRNA knockout: sgATF3, 10 nM | 95.5
sgRNA knockout: sgATF3, 100 nM | 94.5
sgRNA knockout: sgATF3, 1000 nM | 109
sgRNA knockout: sgATF3, 10000 nM | 77.6
sgRNA knockout: sgATF4, 10 nM | 95.8
sgRNA knockout: sgATF4, 100 nM | 70.4
sgRNA knockout: sgATF4, 1000 nM | 80.9
sgRNA knockout: sgATF4, 10000 nM | 92.2
sgRNA knockout: sgATF6, 10 nM | 76.2
sgRNA knockout: sgATF6, 100 nM | 88.9
sgRNA knockout: sgATF6, 1000 nM | 74.8
sgRNA knockout: sgATF6, 10000 nM | 91.2
sgRNA knockout: sgATG7, 10 nM | 80.3
sgRNA knockout: sgATG7, 100 nM | 86
sgRNA knockout: sgATG7, 1000 nM | 96.3
sgRNA knockout: sgATG7, 10000 nM | 94.33
sgRNA knockout: sgERN1, 10 nM | 77.9
sgRNA knockout: sgERN1, 100 nM | 91.2
sgRNA knockout: sgERN1, 1000 nM | 112
sgRNA knockout: sgERN1, 10000 nM | 114
sgRNA knockout: sgHSF1, 10 nM | 91.5
sgRNA knockout: sgHSF1, 100 nM | 98.6
sgRNA knockout: sgHSF1, 1000 nM | 95.2
sgRNA knockout: sgHSF1, 10000 nM | 75.4
sgRNA knockout: sgHSF2, 10 nM | 104
sgRNA knockout: sgHSF2, 100 nM | 81.3
sgRNA knockout: sgHSF2, 1000 nM | 92.1
sgRNA knockout: sgHSF2, 10000 nM | 93.7
sgRNA knockout: sgKEAP1, 10 nM | 89.9
sgRNA knockout: sgKEAP1, 100 nM | 87.8
sgRNA knockout: sgKEAP1, 1000 nM | 80.3
sgRNA knockout: sgKEAP1, 10000 nM | 92.8
sgRNA knockout: sgNFE2L2, 10 nM | 83.3
sgRNA knockout: sgNFE2L2, 100 nM | 92.2
sgRNA knockout: sgNFE2L2, 1000 nM | 71.5
sgRNA knockout: sgNFE2L2, 10000 nM | 84
sgRNA knockout: sgSLC35F2, 10 nM | 118
sgRNA knockout: sgSLC35F2, 100 nM | 92.2
sgRNA knockout: sgSLC35F2, 1000 nM | 88.9
sgRNA knockout: sgSLC35F2, 10000 nM | 81.08
sgRNA knockout: sgXBP1, 10 nM | 89.3
sgRNA knockout: sgXBP1, 100 nM | 101
sgRNA knockout: sgXBP1, 1000 nM | 71.3
sgRNA knockout: sgXBP1, 10000 nM | 107
